Record: PubChem BioAssay AID1508597 (Cure First, 2020)
Shown is an unselected part of the about 2,100 reagents, under one of the conditions tested. 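Calls flag viability under 80% in either arm, not effects specific to rucaparib; the reference for percent is not stated.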 The numbers tell different reagents against one gene apart. Some reagents were tested in more than one well and are listed for each. No sequences are given here. The record does not give: the 100% reference.

Aim: 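Knock-downs altering ovarian cancer cell survival with or without PARP inhibitor rucaparib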 (primary screen)
Cells: human ovarian carcinoma lines grown from tumours: OCI-P5x (papillary serous) and OCI-C5x (clear cell)
Reagent: siRNA pool against human genes, 1.25 pmol siRNA per well
Timing: 72 h or 96 h, depending on the cell culture
Conditions: rucaparib 20 µM (about IC30) or vehicle, present until read-out
Rucaparib or vehicle: Rucaparib
Cell line: OCI-P5x (serous)
Measurement: 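ATP luminescence measured at 72 or 96 h according to the culture, then normalised and expressed as percent viability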
Direction: viability, normalised: higher = more viable cells remaining
Active means: 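a well counts as a hit if its normalised viability is under 80 percent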
Meaning of the calls: active = viability under 80%; inactive = viability 80% or more

no.	target gene	reagent	technical replicate	viability, normalised (%)	outcome
1	TLK1 (tousled like kinase 1)	1	1	102	inactive
2	TLK1 (tousled like kinase 1)	1	1	85.5	inactive
3	TLK1 (tousled like kinase 1)	1	2	47.1	active
4	TLK1 (tousled like kinase 1)	1	2	91.7	inactive
5	TLK1 (tousled like kinase 1)	1	3	51.7	active
6	TLK1 (tousled like kinase 1)	1	3	61	active
7	HUNK (hormonally up-regulated Neu-associated kinase)	1	1	111	inactive
8	HUNK (hormonally up-regulated Neu-associated kinase)	1	2	69.6	active
9	HUNK (hormonally up-regulated Neu-associated kinase)	1	3	53.2	active
10	IP6K3 (inositol hexakisphosphate kinase 3)	1	1	117	inactive
11	IP6K3 (inositol hexakisphosphate kinase 3)	1	2	117	inactive
12	IP6K3 (inositol hexakisphosphate kinase 3)	1	3	109	inactive
13	IP6K3 (inositol hexakisphosphate kinase 3)	2	1	71.3	active
14	IP6K3 (inositol hexakisphosphate kinase 3)	2	2	92.7	inactive
15	IP6K3 (inositol hexakisphosphate kinase 3)	2	3	107	inactive
16	TTF2 (transcription termination factor 2)	1	1	72.3	active
17	TTF2 (transcription termination factor 2)	1	2	62.1	active
18	TTF2 (transcription termination factor 2)	1	3	61.2	active
19	ELAC2 (elaC ribonuclease Z 2)	1	1	47.6	active
20	ELAC2 (elaC ribonuclease Z 2)	1	2	53.3	active
21	ELAC2 (elaC ribonuclease Z 2)	1	3	41.9	active
22	AKAP1 (A-kinase anchoring protein 1)	1	1	74.6	active
23	AKAP1 (A-kinase anchoring protein 1)	1	2	83.9	inactive
24	AKAP1 (A-kinase anchoring protein 1)	1	3	71.4	active

Taken from above.
Result of ELAC2 (elaC ribonuclease Z 2), technical replicate 1 under “outcome”: active
HUNK (hormonally up-regulated Neu-associated kinase), technical replicate 2, viability, normalised (%) = 69.6

The results go on:
no.	target gene	reagent	technical replicate	viability, normalised (%)	outcome
25	CDC42BPB (CDC42 binding protein kinase beta)	1	1	86.7	inactive
26	CDC42BPB (CDC42 binding protein kinase beta)	1	2	88.7	inactive
27	CDC42BPB (CDC42 binding protein kinase beta)	1	3	55.4	active
28	SOX2 (SRY-box transcription factor 2)	1	1	51.9	active
29	SOX2 (SRY-box transcription factor 2)	1	1	56.1	active
30	SOX2 (SRY-box transcription factor 2)	1	2	59	active
31	SOX2 (SRY-box transcription factor 2)	1	2	32.2	active
32	SOX2 (SRY-box transcription factor 2)	1	3	58	active
33	SOX2 (SRY-box transcription factor 2)	1	3	53.7	active
34	STC1 (stanniocalcin 1)	1	1	90	inactive
35	STC1 (stanniocalcin 1)	1	2	96.9	inactive
36	STC1 (stanniocalcin 1)	1	3	77.1	active
37	CHM (CHM Rab escort protein)	1	1	67.5	active
38	CHM (CHM Rab escort protein)	1	2	70.8	active
39	CHM (CHM Rab escort protein)	1	3	62.9	active
